# In the supplement of paper PMC11732987, “Enantioselective OTUD7B fragment discovery through chemoproteomics screening and high-throughput optimisation” (Communications Chemistry, 2025):
# The chains behind the UniProt entries cited, without tags or fusion partners. Where a name states a change or a piece, a line headed by the entry shows the natural chain unless it says otherwise. Residues count along the entry.
# UniProt P61968: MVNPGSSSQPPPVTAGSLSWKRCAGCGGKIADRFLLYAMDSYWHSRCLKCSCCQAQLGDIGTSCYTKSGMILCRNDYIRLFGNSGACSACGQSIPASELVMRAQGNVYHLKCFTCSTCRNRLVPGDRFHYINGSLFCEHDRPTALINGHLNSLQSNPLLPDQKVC
# UniProt Q9H9P8: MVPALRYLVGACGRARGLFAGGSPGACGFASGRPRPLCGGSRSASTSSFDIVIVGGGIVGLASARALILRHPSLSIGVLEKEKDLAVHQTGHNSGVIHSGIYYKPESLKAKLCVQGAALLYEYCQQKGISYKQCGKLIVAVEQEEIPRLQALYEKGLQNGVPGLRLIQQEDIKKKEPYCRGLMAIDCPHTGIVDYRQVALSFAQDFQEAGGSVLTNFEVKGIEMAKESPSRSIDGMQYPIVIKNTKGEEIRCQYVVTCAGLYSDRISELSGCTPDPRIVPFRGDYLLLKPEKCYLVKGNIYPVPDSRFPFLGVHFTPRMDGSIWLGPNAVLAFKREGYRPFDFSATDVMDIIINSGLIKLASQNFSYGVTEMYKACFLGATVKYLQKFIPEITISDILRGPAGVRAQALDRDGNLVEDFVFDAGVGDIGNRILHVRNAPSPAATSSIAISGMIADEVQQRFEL
# UniProt Q9NS86: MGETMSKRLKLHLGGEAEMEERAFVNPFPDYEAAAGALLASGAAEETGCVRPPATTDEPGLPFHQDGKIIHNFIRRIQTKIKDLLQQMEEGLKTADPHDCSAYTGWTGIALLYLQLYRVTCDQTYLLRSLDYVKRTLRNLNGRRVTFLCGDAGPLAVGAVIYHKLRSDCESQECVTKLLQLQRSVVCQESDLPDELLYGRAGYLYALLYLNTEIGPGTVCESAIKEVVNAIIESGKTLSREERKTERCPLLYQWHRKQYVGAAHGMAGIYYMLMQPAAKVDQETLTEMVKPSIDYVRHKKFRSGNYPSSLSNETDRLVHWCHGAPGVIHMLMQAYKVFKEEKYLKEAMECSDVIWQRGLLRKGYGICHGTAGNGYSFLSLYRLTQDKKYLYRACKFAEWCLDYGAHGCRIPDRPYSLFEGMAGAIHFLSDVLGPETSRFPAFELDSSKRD
# UniProt Q8NG31: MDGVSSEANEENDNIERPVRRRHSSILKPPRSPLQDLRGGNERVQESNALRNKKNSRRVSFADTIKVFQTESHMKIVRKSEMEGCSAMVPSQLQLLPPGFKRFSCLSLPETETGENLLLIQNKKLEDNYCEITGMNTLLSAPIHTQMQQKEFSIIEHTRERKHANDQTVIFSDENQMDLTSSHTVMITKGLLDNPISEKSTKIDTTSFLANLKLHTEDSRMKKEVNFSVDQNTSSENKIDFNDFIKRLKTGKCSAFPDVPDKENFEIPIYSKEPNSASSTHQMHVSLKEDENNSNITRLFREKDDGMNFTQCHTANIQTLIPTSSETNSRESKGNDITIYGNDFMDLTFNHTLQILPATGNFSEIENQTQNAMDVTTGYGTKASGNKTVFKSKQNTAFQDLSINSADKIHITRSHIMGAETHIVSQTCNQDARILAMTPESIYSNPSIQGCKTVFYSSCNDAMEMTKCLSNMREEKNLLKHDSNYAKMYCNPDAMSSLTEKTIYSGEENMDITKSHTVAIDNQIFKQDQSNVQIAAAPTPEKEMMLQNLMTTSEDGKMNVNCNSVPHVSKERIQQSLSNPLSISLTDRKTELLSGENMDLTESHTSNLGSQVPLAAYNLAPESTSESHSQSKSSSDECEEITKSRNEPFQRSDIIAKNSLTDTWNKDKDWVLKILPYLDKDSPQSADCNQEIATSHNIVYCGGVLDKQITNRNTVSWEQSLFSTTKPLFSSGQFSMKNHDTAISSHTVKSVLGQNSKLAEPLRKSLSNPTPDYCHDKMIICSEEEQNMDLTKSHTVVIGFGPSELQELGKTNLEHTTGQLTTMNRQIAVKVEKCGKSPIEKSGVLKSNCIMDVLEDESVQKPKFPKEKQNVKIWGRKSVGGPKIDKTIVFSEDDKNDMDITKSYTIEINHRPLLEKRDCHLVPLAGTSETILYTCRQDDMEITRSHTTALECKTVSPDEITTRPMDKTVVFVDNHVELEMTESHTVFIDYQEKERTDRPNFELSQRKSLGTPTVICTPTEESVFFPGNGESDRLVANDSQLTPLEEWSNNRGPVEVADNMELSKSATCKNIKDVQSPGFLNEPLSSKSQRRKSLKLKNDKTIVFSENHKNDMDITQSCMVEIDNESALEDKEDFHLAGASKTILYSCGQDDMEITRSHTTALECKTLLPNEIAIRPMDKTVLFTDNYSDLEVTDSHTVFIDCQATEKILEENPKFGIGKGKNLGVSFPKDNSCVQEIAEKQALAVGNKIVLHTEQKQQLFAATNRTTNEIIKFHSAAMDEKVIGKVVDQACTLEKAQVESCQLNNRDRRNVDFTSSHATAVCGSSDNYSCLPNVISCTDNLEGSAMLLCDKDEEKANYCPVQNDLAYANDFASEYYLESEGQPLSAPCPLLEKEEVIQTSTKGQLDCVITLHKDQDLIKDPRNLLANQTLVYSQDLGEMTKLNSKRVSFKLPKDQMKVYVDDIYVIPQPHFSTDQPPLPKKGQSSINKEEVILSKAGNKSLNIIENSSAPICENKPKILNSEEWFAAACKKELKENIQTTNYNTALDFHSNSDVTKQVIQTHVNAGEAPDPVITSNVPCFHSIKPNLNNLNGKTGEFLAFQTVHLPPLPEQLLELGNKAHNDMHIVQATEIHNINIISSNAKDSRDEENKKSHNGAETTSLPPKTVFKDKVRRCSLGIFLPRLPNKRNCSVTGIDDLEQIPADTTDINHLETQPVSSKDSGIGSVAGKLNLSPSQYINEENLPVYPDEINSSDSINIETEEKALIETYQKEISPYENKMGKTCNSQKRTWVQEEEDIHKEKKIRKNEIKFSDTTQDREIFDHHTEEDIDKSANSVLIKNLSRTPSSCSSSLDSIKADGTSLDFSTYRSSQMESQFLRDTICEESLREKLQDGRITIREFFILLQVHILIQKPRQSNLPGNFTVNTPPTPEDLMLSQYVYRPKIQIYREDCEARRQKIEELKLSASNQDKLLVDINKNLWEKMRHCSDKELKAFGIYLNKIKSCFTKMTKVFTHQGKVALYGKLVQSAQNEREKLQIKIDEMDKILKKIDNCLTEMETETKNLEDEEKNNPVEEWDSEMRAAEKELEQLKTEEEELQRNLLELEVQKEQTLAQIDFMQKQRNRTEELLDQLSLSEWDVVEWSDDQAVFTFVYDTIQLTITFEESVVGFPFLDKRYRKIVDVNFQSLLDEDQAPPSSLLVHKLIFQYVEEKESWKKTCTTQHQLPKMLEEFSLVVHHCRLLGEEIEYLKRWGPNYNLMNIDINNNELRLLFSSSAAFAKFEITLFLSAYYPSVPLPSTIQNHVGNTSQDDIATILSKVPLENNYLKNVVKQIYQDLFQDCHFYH
# UniProt Q14657: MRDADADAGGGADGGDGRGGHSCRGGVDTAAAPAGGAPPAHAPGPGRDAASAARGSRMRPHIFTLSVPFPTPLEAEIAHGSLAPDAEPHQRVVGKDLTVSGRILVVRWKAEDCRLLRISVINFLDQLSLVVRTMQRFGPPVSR
# UniProt O95202, 527-554: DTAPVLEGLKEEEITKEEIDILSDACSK
# UniProt Q9UJU2, 2-36: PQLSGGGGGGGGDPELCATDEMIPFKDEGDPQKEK
# UniProt P53667: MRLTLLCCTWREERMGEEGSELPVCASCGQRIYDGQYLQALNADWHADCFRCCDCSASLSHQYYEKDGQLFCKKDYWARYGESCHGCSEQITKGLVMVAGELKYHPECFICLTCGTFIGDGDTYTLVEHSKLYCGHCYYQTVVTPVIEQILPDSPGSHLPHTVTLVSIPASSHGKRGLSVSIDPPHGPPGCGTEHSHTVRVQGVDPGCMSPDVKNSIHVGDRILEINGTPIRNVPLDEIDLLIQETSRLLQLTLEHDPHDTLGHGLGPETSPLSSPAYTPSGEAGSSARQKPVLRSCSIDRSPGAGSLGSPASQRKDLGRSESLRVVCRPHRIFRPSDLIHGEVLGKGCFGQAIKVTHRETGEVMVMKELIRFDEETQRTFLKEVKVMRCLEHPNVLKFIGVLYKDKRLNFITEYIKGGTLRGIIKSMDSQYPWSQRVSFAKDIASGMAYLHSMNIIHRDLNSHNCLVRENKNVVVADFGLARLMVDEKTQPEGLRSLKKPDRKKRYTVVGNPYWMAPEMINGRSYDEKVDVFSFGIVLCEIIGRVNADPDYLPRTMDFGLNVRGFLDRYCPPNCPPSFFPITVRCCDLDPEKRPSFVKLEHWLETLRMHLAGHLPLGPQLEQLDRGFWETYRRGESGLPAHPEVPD
# UniProt P33176: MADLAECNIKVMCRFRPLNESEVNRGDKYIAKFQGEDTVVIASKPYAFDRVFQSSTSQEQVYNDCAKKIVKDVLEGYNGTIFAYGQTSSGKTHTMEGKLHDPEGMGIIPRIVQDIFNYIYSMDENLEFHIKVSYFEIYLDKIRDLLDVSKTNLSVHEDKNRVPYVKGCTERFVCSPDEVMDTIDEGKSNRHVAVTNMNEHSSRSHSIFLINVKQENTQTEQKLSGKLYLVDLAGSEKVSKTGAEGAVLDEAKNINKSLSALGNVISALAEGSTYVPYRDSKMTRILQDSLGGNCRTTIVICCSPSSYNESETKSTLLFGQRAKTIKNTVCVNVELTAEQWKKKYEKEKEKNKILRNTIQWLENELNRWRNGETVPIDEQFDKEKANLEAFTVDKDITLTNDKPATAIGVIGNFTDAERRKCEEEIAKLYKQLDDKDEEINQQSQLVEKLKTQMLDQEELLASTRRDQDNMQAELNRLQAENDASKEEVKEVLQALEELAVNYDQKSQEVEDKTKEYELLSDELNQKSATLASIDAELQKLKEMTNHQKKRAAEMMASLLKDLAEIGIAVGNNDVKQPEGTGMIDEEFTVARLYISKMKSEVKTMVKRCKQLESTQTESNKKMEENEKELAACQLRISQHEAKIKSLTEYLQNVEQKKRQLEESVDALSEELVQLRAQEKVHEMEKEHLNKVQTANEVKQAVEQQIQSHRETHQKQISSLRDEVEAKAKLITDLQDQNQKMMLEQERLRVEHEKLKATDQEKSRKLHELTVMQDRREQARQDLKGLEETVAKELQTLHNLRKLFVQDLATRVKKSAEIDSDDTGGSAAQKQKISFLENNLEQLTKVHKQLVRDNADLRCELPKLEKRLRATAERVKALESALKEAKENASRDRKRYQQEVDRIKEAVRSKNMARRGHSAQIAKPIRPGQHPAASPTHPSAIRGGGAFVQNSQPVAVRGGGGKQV
# UniProt Q15031: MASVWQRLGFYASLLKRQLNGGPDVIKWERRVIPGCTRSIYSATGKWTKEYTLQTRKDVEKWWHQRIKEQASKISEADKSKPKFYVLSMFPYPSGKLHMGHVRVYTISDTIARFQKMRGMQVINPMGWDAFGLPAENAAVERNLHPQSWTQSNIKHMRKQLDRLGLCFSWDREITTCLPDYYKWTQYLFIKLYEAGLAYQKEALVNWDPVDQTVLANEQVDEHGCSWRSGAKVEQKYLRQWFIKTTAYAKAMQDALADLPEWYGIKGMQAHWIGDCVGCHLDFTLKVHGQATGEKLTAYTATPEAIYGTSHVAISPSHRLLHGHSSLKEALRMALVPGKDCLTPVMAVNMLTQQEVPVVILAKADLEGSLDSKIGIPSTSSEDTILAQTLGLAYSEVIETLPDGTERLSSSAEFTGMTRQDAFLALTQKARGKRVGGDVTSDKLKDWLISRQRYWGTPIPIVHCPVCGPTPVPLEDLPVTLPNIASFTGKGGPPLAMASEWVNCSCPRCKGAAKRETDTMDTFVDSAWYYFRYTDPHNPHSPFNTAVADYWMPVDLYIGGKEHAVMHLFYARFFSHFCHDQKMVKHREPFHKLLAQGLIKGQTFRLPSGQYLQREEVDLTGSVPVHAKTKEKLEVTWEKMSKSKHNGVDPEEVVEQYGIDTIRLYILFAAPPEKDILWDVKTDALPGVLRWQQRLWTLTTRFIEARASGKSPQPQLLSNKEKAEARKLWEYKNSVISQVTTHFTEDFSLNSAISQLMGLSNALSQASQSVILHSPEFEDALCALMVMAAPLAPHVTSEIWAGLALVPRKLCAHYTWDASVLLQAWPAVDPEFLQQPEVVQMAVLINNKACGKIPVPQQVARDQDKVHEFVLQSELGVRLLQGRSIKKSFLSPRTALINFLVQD
# This is one part of the list. The data scatter; read single values as rough.
# Compound: ClCC(=O)N[C@H]1CCCc2ccccc12
# Test: log2 mean competition ratio of IA-DTB cysteine labelling (DMSO/compound) (log2 ratio); higher = stronger cysteine engagement by compound
# Settings: 50 µM; treatment time: 4 h; cell line lysate: HEK293T
# Description: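 IA-DTB competitive cysteine chemoproteomics in HEK293T RIPA lysate. Lysates were treated with compound 29 or 30 at 50 or 200 µM for 4 h, then IA-DTB (500 µM, 1 h), trypsin-digested, NeutrAvidin-enriched and analysed by diaPASEF. Competition ratio = intensity DMSO / intensity compound (n=4 treated, n=64 DMSO); binding: mean log2 CR ≥ 1 and p ≤ 0.05 plus QC filters. Target is the cysteine site.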
row,Target,log2 mean competition ratio
1,LRBA C2820,0.0924
2,LRBA C982,-0.522
3,LMO4 C73 (UniProt P61968),-0.0368
4,L2HGDH C187 (UniProt Q9H9P8),-0.388
5,KNTC1 C2099 (UniProt P50748),-0.43
6,LRBA C2675,-0.131
7,LARS1 C1093,-0.21
8,LANCL2 C121 (UniProt Q9NS86),-0.124
9,KMT2C C2873 (UniProt Q8NEZ4),-0.455
10,KNL1 C1233 (UniProt Q8NG31),-0.279
11,LRP1 C40 (UniProt Q07954),-0.371
12,LAGE3 C113 (UniProt Q14657),-0.0364
13,LETM1 C552 (UniProt O95202),-0.0721
14,LEF1 C18 (UniProt Q9UJU2),0.139
15,LIMK1 C390 (UniProt P53667),-0.773
16,KNL1 C1847 (UniProt Q8NG31),-0.658
17,KIF5B C421 (UniProt P33176),0.0306
18,KMT2B C2540 (UniProt Q9UMN6),0.978
19,LARS2 C177 (UniProt Q15031),-0.414
20,LEMD3 C785 (UniProt Q9Y2U8),0.132

# Same assay, conditions: 200 µM; treatment time: 4 h; cell line lysate: HEK293T
row,Target,log2 mean competition ratio
1,LRBA C2820,-0.213
2,LRBA C982,-0.217
3,LMO4 C73 (UniProt P61968),0.161
4,L2HGDH C187 (UniProt Q9H9P8),0.0694
5,KNTC1 C2099 (UniProt P50748),-0.232
6,LRBA C2675,-0.386
7,LARS1 C1093,0.365
8,LANCL2 C121 (UniProt Q9NS86),-0.161
9,KMT2C C2873 (UniProt Q8NEZ4),0.42
10,KNL1 C1233 (UniProt Q8NG31),0.0645
11,LRP1 C40 (UniProt Q07954),0.0857
12,LAGE3 C113 (UniProt Q14657),0.17
13,LETM1 C552 (UniProt O95202),-0.0303
14,LEF1 C18 (UniProt Q9UJU2),-0.274
15,LIMK1 C390 (UniProt P53667),0.0983
16,KNL1 C1847 (UniProt Q8NG31),0.0221
17,KIF5B C421 (UniProt P33176),-0.164
18,KMT2B C2540 (UniProt Q9UMN6),-0.127
19,LARS2 C177 (UniProt Q15031),-0.25
20,LEMD3 C785 (UniProt Q9Y2U8),0.226
